# Reference: the supplement of paper PMC10470496
# Structures can show the parent of a compound that is named as a salt. The list shows a part of the results. Repeats are few or missing, and single values can be far off.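 Three clinical Candida auris isolates (clades III, IV and I) from the CDC resistance isolate bank were grown in RPMI-1640 at 35°C. Growth was background-corrected OD600 relative to same-plate vehicle-only wells. Hits required over 50% inhibition in at least two strains and a plate-corrected B-score above 0.1.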
# What was measured:
# Experiment in all cases: growth relative to vehicle control (OD600 ratio) (fraction); higher = less inhibition
# Conditions in all cases: 24 h
# C. auris AR-384 = test system: C. auris AR-384
# C. auris AR-386 = test system: C. auris AR-386
# C. auris AR-387 = test system: C. auris AR-387
Compound,growth (C. auris AR-384; 1 µM),growth (C. auris AR-384; 10 µM),growth (C. auris AR-386; 1 µM),growth (C. auris AR-386; 10 µM),growth (C. auris AR-387; 1 µM),growth (C. auris AR-387; 10 µM)
CC1(C)S[C@@H]2[C@H](NC(=O)Cc3ccccc3)C(=O)N2[C@H]1C(=O)O [Penicillin G Sodium],0.87,0.89,0.83,0.73,0.72,0.99
CN1CCN(CCOc2cc(OC3CCOCC3)c3c(Nc4c(Cl)ccc5c4OCO5)ncnc3c2)CC1 [Saracatinib (AZD0530)],0.75,0.58,0.58,0.77,0.65,0.77
CC(C[N+](C)(C)C)OC(N)=O (stereo not drawn) [Bethanechol chloride],0.81,0.8,0.88,1.13,0.93,1.11
CCn1c(=O)c2c(nc(/C=C/c3ccc(OC)c(OC)c3)n2C)n(CC)c1=O [Istradefylline],0.75,0.99,0.73,1.12,0.71,0.72
NS(=O)(=O)c1cc(C(=O)O)c(NCc2ccco2)cc1Cl [Furosemide],1.1,0.82,1.09,1.25,1.23,1.18
CC(=O)O[C@]1(C(C)=O)CC[C@H]2[C@@H]3C=C(Cl)C4=CC(=O)CC[C@]4(C)[C@H]3CC[C@@]21C [Chlormadinone acetate],1.11,1.27,1.03,1,0.94,1.44
Nc1ccc(S(=O)(=O)Nc2nccs2)cc1 [Sulfathiazole],1.07,0.89,0.9,1.11,1.04,1.05
N=C(N)c1ccc(OCCCCCOc2ccc(C(=N)N)cc2)cc1 [Pentamidine isethionate],0.82,0.2,0.49,0.14,0.87,0.77
OC[C@@H](O)[C@@H](O)[C@H](O)[C@H](O)CO [D-Mannitol],0.87,0.91,0.83,0.61,0.66,0.68
CC1(C)CCC(C)(C)c2cc(NC(=O)c3ccc(C(=O)O)cc3)ccc21 [Tamibarotene],0.85,1.1,0.83,1.03,1.15,0.91
C=CCN1CCCC1CNC(=O)c1cc2nn[nH]c2cc1OC (stereo not drawn) [Alizapride HCl],0.75,0.86,0.85,0.91,0.91,0.8
CNNCc1ccc(C(=O)NC(C)C)cc1 [Procarbazine HCl],1.09,1.2,0.94,1.22,0.97,1.24
O=C(O)CCC(=O)c1ccc(-c2ccccc2)cc1 [Fenbufen],0.85,0.63,1.07,0.76,0.88,0.93
CC/C(=C(\c1ccccc1)c1ccc(OCCN(C)C)cc1)c1ccccc1 [Tamoxifen Citrate],0.86,0.66,0.54,0.72,0.67,0.82
C[C@]12CC[C@@H]3c4ccc(O)cc4CC[C@H]3[C@@H]1CCC2=O [Estrone],0.96,0.59,0.57,0.95,0.81,0.84
COC1=CC(=O)C[C@@H](C)[C@]12Oc1c(Cl)c(OC)cc(OC)c1C2=O [Griseofulvin],0.86,1.01,1.22,1.29,1.21,1.09
NC[C@H]1O[C@H](O[C@H]2[C@H](O)[C@@H](O[C@H]3O[C@H](CO)[C@@H](O)[C@H](N)[C@H]3O)[C@H](N)C[C@@H]2N)[C@H](O)[C@@H](O)[C@@H]1O [Kanamycin sulfate],0.88,0.61,0.82,0.6,0.8,1.12
O=C1NC(=O)C(c2ccccc2)(c2ccccc2)N1 [Phenytoin],1.52,1.52,1.2,1.29,1.16,1.04
C[C@]12CC[C@@H]3c4ccc(O)cc4CC[C@H]3[C@@H]1C[C@@H](O)[C@@H]2O [Estriol],0.96,0.87,1,0.77,0.69,0.83
CCOc1cc(CC(=O)N[C@@H](CC(C)C)c2ccccc2N2CCCCC2)ccc1C(=O)O [Repaglinide],0.92,0.65,0.57,0.67,0.84,0.69
CCS(=O)(=O)CCn1c([N+](=O)[O-])cnc1C [Tinidazole],0.84,0.79,0.74,0.75,0.7,0.65
CC1(C)S[C@@H]2[C@H](NC(=O)[C@H](NC(=O)N3CCNC3=O)c3ccccc3)C(=O)N2[C@H]1C(=O)O [Azlocillin sodium salt],0.72,0.69,0.64,0.82,0.77,0.6
CC1=C(/C=C/C(C)=C/C=C/C(C)=C\C(=O)O)C(C)(C)CCC1 [Isotretinoin],0.82,1.48,1.19,1.28,0.85,1.2
CCN1CCN(C(=O)N[C@@H](C(=O)N[C@@H]2C(=O)N3[C@@H]2SC(C)(C)[C@@H]3C(=O)O)c2ccccc2)C(=O)C1=O [Piperacillin Sodium],0.87,0.81,0.83,0.69,0.68,0.72
CC1(C)S[C@@H]2[C@H](NC(=O)[C@H](N)c3ccccc3)C(=O)N2[C@H]1C(=O)O [Ampicillin sodium],1.19,1.26,1.27,1.02,1.03,0.76
CCOC(=O)C1=C(COCCN)NC(C)=C(C(=O)OC)C1c1ccccc1Cl (stereo not drawn) [Amlodipine],1.28,1.42,1.18,0.62,1.04,0.72
Cc1onc(-c2c(Cl)cccc2Cl)c1C(=O)N[C@@H]1C(=O)N2[C@@H]1SC(C)(C)[C@@H]2C(=O)O [Dicloxacillin Sodium],0.93,1.01,0.92,1.02,1.08,0.94
OC[C@H]1OC(O)[C@H](O)[C@@H](O)[C@@H]1O (stereo partly drawn) [Dextrose],0.98,0.96,0.61,0.69,1,0.87

# Some of the entries so far, with bars between the fields.
Compound | growth (C. auris AR-384; 1 µM) | growth (C. auris AR-384; 10 µM) | growth (C. auris AR-386; 1 µM) | growth (C. auris AR-386; 10 µM) | growth (C. auris AR-387; 1 µM) | growth (C. auris AR-387; 10 µM)
CC(=O)O[C@]1(C(C)=O)CC[C@H]2[C@@H]3C=C(Cl)C4=CC(=O)CC[C@]4(C)[C@H]3CC[C@@]21C [Chlormadinone acetate] | 1.11 | 1.27 | 1.03 | 1 | 0.94 | 1.44
COC1=CC(=O)C[C@@H](C)[C@]12Oc1c(Cl)c(OC)cc(OC)c1C2=O [Griseofulvin] | 0.86 | 1.01 | 1.22 | 1.29 | 1.21 | 1.09
CC1(C)S[C@@H]2[C@H](NC(=O)[C@H](NC(=O)N3CCNC3=O)c3ccccc3)C(=O)N2[C@H]1C(=O)O [Azlocillin sodium salt] | 0.72 | 0.69 | 0.64 | 0.82 | 0.77 | 0.6
CCOC(=O)C1=C(COCCN)NC(C)=C(C(=O)OC)C1c1ccccc1Cl (stereo not drawn) [Amlodipine] | 1.28 | 1.42 | 1.18 | 0.62 | 1.04 | 0.72
OC[C@H]1OC(O)[C@H](O)[C@@H](O)[C@@H]1O (stereo partly drawn) [Dextrose] | 0.98 | 0.96 | 0.61 | 0.69 | 1 | 0.87
